# Source: the supplement of paper PMC11348887
# Counter-ions that a name gives are not always drawn. Some of the results follow. Small differences around the control level are noise.
# System: hPSC-derived cortical neurons (WA09)
# Assay: total neurite length per nucleus (MAP2) z-score; higher = more neurite growth
# Conditions: 5 µM; treatment: days 7-14 after plating, readout day 21
row,SMILES,total neurite length per nucleus (z-score)
1,Nc1nc(=O)[nH]cc1F [Flucytosine],0.842
2,O=C(C=Cc1ccccc1)NC(NC(=S)Nc1ccc(Cl)cc1)C(Cl)(Cl)Cl (centres undefined),0.818
3,O=C(NO)c1cccc(C(=O)NCCc2ccccc2)c1,0.355
4,CCC(=O)OCC(=O)[C@@]1(OC(=O)CC)[C@@H](C)C[C@H]2[C@@H]3CCC4=CC(=O)C=C[C@]4(C)[C@@]3(Cl)[C@@H](O)C[C@@]21C [Beclomethasone dipropionate],-0.86
5,CO[C@H]1CC[C@H](N2C(=O)CNc3ncc(-c4ccc(C(C)(C)O)nc4)nc32)CC1,-2.22
6,O=C(O)c1cn(-c2ccc(F)cc2)c2cc(N3CCNCC3)c(F)cc2c1=O [Sarafloxacin HCl],0.816
7,CN/C(=N\CCSCc1nc[nH]c1C)NC#N [Cimetidine],0.0943
8,CC1(C)[C@@H](O)CC[C@]2(C)[C@H]3C(=O)C=C4[C@@H]5C[C@@](C)(C(=O)O)CC[C@]5(C)CC[C@@]4(C)[C@]3(C)CC[C@@H]12 [Enoxolone],0.396
9,C[C@@H](c1ncncc1F)[C@](O)(Cn1cncn1)c1ccc(F)cc1F [Voriconazole],0.735
10,"CC(=O)C1=C(O)C=C2Oc3c(C(C)=O)c(O)c(C)c(O)c3C2(C)C1=O (single isomer, unassigned; (+)) [(+)-Usniacin]",0.0528
11,Nc1cccc(-c2cc3c(Oc4cccc(O)c4)ncnc3[nH]2)c1,0.371
12,CC(C)CN(C[C@@H](O)[C@H](Cc1ccccc1)NC(=O)O[C@H]1CCOC1)S(=O)(=O)c1ccc(N)cc1 [Amprenavir],1.3
13,C#C[C@]1(O)CC[C@H]2[C@@H]3CCC4=CC(=O)CC[C@@H]4[C@H]3CC[C@@]21C [Norethindrone],0.0263
14,C[C@@H]1C/C=C/C=C/C=C/C=C/[C@H](O[C@@H]2O[C@H](C)[C@@H](O)[C@H](N)[C@@H]2O)C[C@@H]2O[C@](O)(C[C@@H](O)C[C@H]3O[C@@H]3/C=C/C(=O)O1)C[C@H](O)[C@H]2C(=O)O [Natamycin],0.668
15,O=c1cc(-c2ccc(O)cc2)oc2cc(O)cc(O)c12 [Apigenin],-0.933
16,CN1CCN(S(=O)(=O)c2ccc(-c3cnc(N)c(C(=O)Nc4cccnc4)n3)cc2)CC1,-1.85
17,COc1ccc(/C=C\c2cc(OC)c(OC)c(OC)c2)cc1O [Combretastatin A4],-4.37
18,C[C@H]1COC2=C1C(=O)C(=O)c1c2ccc2c1CCCC2(C)C [Cryptotanshinone],-1.12
19,CC(C)C[C@H](NC(=O)[C@@H](NC(=O)c1cccc(-c2ccccc2)n1)[C@@H](C)O)B(O)O,-2.91

# Looked up by compound from the entries so far, 2 records:
row,SMILES,total neurite length per nucleus (z-score)
10,"CC(=O)C1=C(O)C=C2Oc3c(C(C)=O)c(O)c(C)c(O)c3C2(C)C1=O (single isomer, unassigned; (+)) [(+)-Usniacin]",0.0528
15,O=c1cc(-c2ccc(O)cc2)oc2cc(O)cc(O)c12 [Apigenin],-0.933
